No constants are given. Whether binding was seen depends on the method and setting.

Assay [1] has as its target thioredoxin T (TrxT) from D. melanogaster, full length (D. melanogaster) (UniProt Q8IFW4). Description: NMR 15N relaxation (T1, T2, correlation time); 15N-labelled protein in solution, 600 MHz, 298 K; correlation time from T1 and T2 compared with the molecular weight; both purified.
Assay [2] addresses Deadhead (Dhd) from D. melanogaster (D. melanogaster) (UniProt P47938). The assay is described as above.

B1: thioredoxin T (TrxT) from D. melanogaster, full length (protein, UniProt Q8IFW4 1-157)
chain: MVYPVRNKDDLDQQLILAEDKLVVIDFYADWCGPCKIIAPKLDELAQQYSDRVVVLKVNVDENEDITVEYNVNSMPTFVFIKGGNVLELFVGCNSDKLAKLMEKHAGVYTDEAADVKAVHIDGECIVDLTAESSESDNDNNNVNEVSAHDENAVLEH
On to B1, for which the binding result in assay [1] is reported as “no binding”.

B2: Deadhead (Dhd) from D. melanogaster (protein, UniProt P47938 1-107)
chain: MASVRTMNDYHKRIEAADDKLIVLDFYATWCGPCKEMESTVKSLARKYSSKAVVLKIDVDKFEELTERYKVRSMPTFVFLRQNRRLASFAGADEHKLTNMMAKLVKA
Consider B2, for which the binding entry in assay [2] is “no binding”.

The values above are taken from article PMC7924233.
